Experimental data from PubChem BioAssay AID493014 (National Center for Advancing Translational Sciences (NCATS), 2011).
The other results are listed elsewhere or left out. The main result of the screen is listed elsewhere. These columns were measured beside it and carry no call. Compounds called inactive in the main read-out are mostly missing here. Words in brackets tell the shape of the fitted curve; partial curves, single points and poor fits give uncertain potencies.

Test: qHTS Assay to Find Inhibitors of Chronic Active B-Cell Receptor Signaling
Settings: ABC-DLBCL IkBa-CBG/CBR reporter, luminescence ratio (green luciferase fused to IkBa over red control in TMD8 lymphoma cells), 4 h
Outline: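 TMD8 human ABC-DLBCL cells with doxycycline-inducible IκBα–green luciferase fusion and unfused red luciferase, in 0.5% FBS medium; compounds up to 46 uM, 4 h at 37C. Green/red luminescence ratio, filter-overlap corrected, fitted to concentration-response curves.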

[1] = measured here: CBR red luminescence, cell number
[2] = measured here: IkBa-CBG green luminescence

Compound | AC50 [1] | AC50 [2]
CCS(=O)(=O)NCC(c1ccco1)N1CCN(c2ccccc2)CC1 (stereo unspecified) | 3.66 µM [rising, single point] | –
COc1cc(/C=N/NC(=O)c2ccc3c(c2)OCCO3)c(Br)c(Br)c1O | 7.08 µM [falling, partial curve] | –
CCc1cccc(NC(=O)Cn2cc(C=O)c3ccccc32)c1 | 0.794 µM [falling, full curve, poor fit] | –
Cc1ccccc1NS(=O)(=O)c1cc(C(=O)Nc2ccccc2-c2ccccc2)ccc1Cl | 23.1 µM [falling, single point] | 25.9 µM [rising, partial curve, poor fit]
O=C(/C=C\c1ccc(-c2ccccc2)o1)c1ccccc1 | 8.2 µM [falling, partial curve] | –
O=C(CCSc1nc(-c2ccco2)cc(C(F)(F)F)n1)N1CCCc2ccccc21 | 6.51 µM [falling, single point] | –
Cc1cccc(NC(=O)C2C3C=CC(O3)C2C(=O)O)c1C (stereo unspecified) | 1.12 µM [rising, full curve, poor fit] | –
CCCc1cc(-n2ccnc2)n2c(nc3ccccc32)c1C#N | 0.291 µM [rising, full curve, poor fit] | –
CC(=O)Nc1cccc(C(=O)N/N=C/c2ccccc2F)c1 | 18.4 µM [falling, single point] | –
Cc1ccc(-n2cc(CNC(C)c3cnn(C)c3)c(-c3ccc(F)cc3)n2)cc1 (stereo unspecified) | 17.8 µM [falling, single point] | –
O=C(NC(=S)NCc1nc2ccccc2[nH]1)c1ccc(F)cc1 | 14.1 µM [rising, partial curve, poor fit] | –
CN(c1ccccc1)S(=O)(=O)c1cccc(NC(=O)Cc2ccc(Cl)cc2)c1 | 29.1 µM [falling, single point] | –
Cc1cccc(NC(=O)[C@H](Cc2ccccc2)NC(=O)OCc2ccccc2)c1 | 18.4 µM [rising, partial curve] | –
CCCOc1c(Cl)cc(C(=O)Nc2ccc3c(c2)OCO3)cc1OCC | 20.6 µM [falling, partial curve, poor fit] | –
COC(=O)c1c(C)[nH]c(C(=O)COC(=O)c2c(C)noc2C)c1C | 0.461 µM [rising, full curve, poor fit] | –
O=C(CCS(=O)(=O)c1ccc(Cl)cc1)Nc1ccccc1Br | 22.4 µM [rising, single point] | –
COc1cc(C(CCN2CCOCC2)c2c(OC)cc(OC)c3c(C)cc(=O)oc23)cc(OC)c1OC (stereo unspecified) | 35.5 µM [falling, single point] | –
C/C(=N/NC(=O)c1cc(-c2cccc([N+](=O)[O-])c2)n[nH]1)c1ccc(Cl)cc1 | 1.03 µM [rising, full curve, poor fit] | –
Cc1ccc(NC(=O)c2cc(-c3ccc(F)cc3)on2)cc1C | 0.355 µM [falling, full curve] | –
CCOc1ccc2nc(NC(=O)CSc3ccc(Cl)cc3)sc2c1 | 20.6 µM [rising, partial curve, poor fit] | –
N#CC1=C(SCC(=O)c2ccc(Br)cc2)NC2=C(C(=O)CCC2)C1c1ccco1 (stereo unspecified) | 11.2 µM [falling, partial curve] | –

Record cards, from the list above.
O=C(/C=C\c1ccc(-c2ccccc2)o1)c1ccccc1 reads AC50 [1]: 8.2 µM [falling, partial curve]
COC(=O)c1c(C)[nH]c(C(=O)COC(=O)c2c(C)noc2C)c1C reads AC50 [1]: 0.461 µM [rising, full curve, poor fit]

Carrying on:

Compound | AC50 [1] | AC50 [2]
CC(=O)c1ccc(NC(=O)COC(=O)Cc2ccsc2)cc1 | 2.06 µM [rising, partial curve, poor fit] | –
CCNC(=S)N/N=C(\C)c1ccc(N2CCOCC2)cc1 | 9.2 µM [falling, partial curve] | –
CSCCC(NC(=O)c1ccco1)C(=O)N1CCCC(C(F)(F)F)C1 (stereo unspecified) | 0.146 µM [falling, full curve, poor fit] | –
COc1cc2cc(CN(Cc3cccs3)C(=S)Nc3ccccc3)c(=O)[nH]c2cc1OC | 3.26 µM [falling, full curve, poor fit] | –
O=C(COC(=O)C1=COCCO1)Nc1ccc(Br)cc1Br | 3.66 µM [rising, full curve, poor fit] | –
CN(C)c1ccc2nc3c(=O)[nH]c(=O)nc-3n(CC(O)C(O)C(O)CO)c2c1 (stereo unspecified) | 22.4 µM [rising, single point] | –
CCCCC1CCC(C(=O)Nc2ccc(S(=O)(=O)Nc3nccs3)cc2)CC1 (stereo unspecified) | 4.61 µM [falling, partial curve, poor fit] | –
COc1ccccc1-c1c(C)nn2c(N3CCN(c4ccc(F)cc4)CC3)cc(C)nc12 | 10 µM [falling, partial curve, poor fit] | –
O=C(c1ccccc1)c1ccc(OCCCN2CCCCC2)cc1 | 5.17 µM [rising, partial curve, poor fit] | –
CCC/C=N/Nc1nc2ccccc2s1 | 12.6 µM [falling, partial curve] | –
Cc1cccc(Nc2nc(N3CCCCC3)nc(N3CCCCC3)n2)c1 | 32.6 µM [rising, single point] | –
CCOC(=O)N1C=CC=C[C@@H]2[C@@H](N3C(=O)c4ccccc4C3=O)C(=O)N21 | 2.59 µM [rising, full curve] | –
COc1ccc2nc(C)cc(N3CC(C)OC(C)C3)c2c1 (stereo unspecified) | 3.66 µM [falling, full curve, poor fit] | –
COc1ccc(C(=O)N(Cc2nc(-c3ccc(C)cc3)no2)C2CCCCC2)cc1OC | 2.91 µM [rising, partial curve, poor fit] | –
Fc1ccc(CN2CCN(c3ncnc4scc(-c5ccccc5)c34)CC2)cc1 | 35.5 µM [falling, partial curve, poor fit] | –
O=C(Nc1ccc2ncccc2c1)c1cccc(Br)c1 | 20 µM [falling, single point] | –
COC(=O)[C@H](Cc1ccccc1)N1C/C=C\COc2c(Cl)cc(Cl)cc2S1(=O)=O | – | 5.8 µM [rising, partial curve, poor fit]
COc1ccc(C)cc1NC(=O)c1ccc(N(C)S(C)(=O)=O)cc1 | 16.4 µM [rising, single point] | –
CC1(C)Cc2c(sc3c2C(=O)N(c2ccccc2)C2=NCCN23)CS1 | 0.1 µM [rising, full curve, poor fit] | –
C/C(CC(=O)Nc1ccc(N(C)C)cc1)=N\NC(=O)c1ccc(Cl)cc1 | 28.2 µM [falling, single point] | –
O=C(CNc1cc(S(=O)(=O)N2CCOCC2)ccc1N1CCCC1)N1CCc2ccccc21 | 10 µM [rising, partial curve] | –

Three compounds from above, arranged by length of the SMILES, rising.
Compound | AC50 [1] | AC50 [2]
O=C(c1ccccc1)c1ccc(OCCCN2CCCCC2)cc1 | 5.17 µM [rising, partial curve, poor fit] | –
CC(=O)c1ccc(NC(=O)COC(=O)Cc2ccsc2)cc1 | 2.06 µM [rising, partial curve, poor fit] | –
COc1ccc(C)cc1NC(=O)c1ccc(N(C)S(C)(=O)=O)cc1 | 16.4 µM [rising, single point] | –

The listing continues.

Compound | AC50 [1] | AC50 [2]
COc1cccc(NC(=O)Cn2c(=O)oc3ccccc32)c1 | 5.8 µM [falling, full curve, poor fit] | –
CCc1nnc(NC(=O)C(C)Sc2ccccc2)s1 (stereo unspecified) | 16.4 µM [rising, partial curve] | –
CCCc1nc(-c2ccc(-c3ccc(F)cc3)cc2)no1 | 6.31 µM [rising, partial curve, poor fit] | –
Cc1cc(C(=O)CSc2nc3ccccc3o2)c(C)n1CC1CCCO1 (stereo unspecified) | 20.6 µM [rising, single point] | –
O=C(CN1CCOCC1)Nc1cc([N+](=O)[O-])ccc1Cl | 17.8 µM [rising, partial curve, poor fit] | –
CC(=O)c1ccc(OCc2cc(C(=O)NC(C)c3cnn(C)c3)no2)cc1 (stereo unspecified) | 28.2 µM [rising, single point] | –
CCCn1c(CN2CCCCC2C)nc2c1c(=O)n(C)c(=O)n2C (stereo unspecified) | 20.6 µM [falling, partial curve, poor fit] | –
Cc1c(S(=O)(=O)N2CCN(c3cccc(C(F)(F)F)c3)CC2)c(=O)n(C)c(=O)n1C | 0.291 µM [rising, full curve, poor fit] | –
Cc1nn(CCO)c(N)c1C1(O)C(=O)Nc2c(Cl)cc(Cl)cc21 (stereo unspecified) | 22.4 µM [rising, single point] | 35.5 µM [falling, single point]
COc1cccc(C2CC(c3ccc(Br)cc3)=NN2C(=O)c2ccncc2)c1OC (stereo unspecified) | 12.6 µM [falling, partial curve] | –
COc1ccc(C2=NC(C)(C)Cc3cc(OC)c(OC)cc32)cc1OC | 14.1 µM [rising, partial curve, poor fit] | 11.2 µM [falling, partial curve]
O=C(/C=C/C=C/c1ccccc1)c1ccco1 | 35.5 µM [falling, single point] | –
N#CC1=C(S)N(c2ccc(F)cc2)C2(CCCCC2)NC1=O | – | 35.5 µM [falling, single point]
CC(=O)N1CCOc2ccc(S(=O)(=O)NCC3CCC(C(=O)Nc4ccc(C)cn4)CC3)cc21 (stereo unspecified) | 14.1 µM [falling, single point] | –
COc1ccccc1NC(=O)c1nn(-c2ccccc2)ccc1=O | 18.4 µM [falling, partial curve, poor fit] | –
COc1cc(NC(=O)c2ccc(Cl)cc2Cl)ccc1-c1cc2ccccc2oc1=O | 3.55 µM [rising, single point] | –
NC(Cc1ccccc1)C(O)(c1ccccc1)c1ccccc1 (stereo unspecified) | 35.5 µM [falling, single point] | –
COc1ccc(C(=O)C2CCN(C(=S)Nc3ccc(F)cc3)CC2)cc1 | 22.4 µM [rising, single point] | –
CCOC(=O)C1CCN(S(=O)(=O)Cc2ccc(Cl)cc2)CC1 | – | 3.26 µM [rising, partial curve, poor fit]
COc1ccc(S(=O)(=O)N2CCN(CCc3ccccc3)CC2)cc1 | 2 µM [rising, partial curve] | –
CCc1ccc(N(CC(=O)NCc2cccnc2)S(=O)(=O)c2ccccc2)cc1 | 6.31 µM [falling, partial curve, poor fit] | –
